Data set [1] relates to sea wasp (Chiropsalmus quadumanus) stings. Nature of the data set: Jellyfish sting test on inner forearm of human test subjects, sea wasp. Format: in vivo. An excerpt:
Two genera of jellyfish were used in examples 2-19 described below: Chiropsalmus quadumanus, a cubomedusa and member of the Scyphozoa, also known as the sea wasp; and another scyphozoan jellyfish, hrysaora quinquecirrha, commonly called the sea nettle. These are the two most common types of stinging jellies that occur with frequency and/or regularity in normal swimming waters on the USA east coast north of Cape Canaveral.
Living healthy specimens were captured locally using trawls and dip-nets. They were maintained in flowing seawater aquariums (ca. 500 liters) for days-weeks; sea nettles maintained for long periods were fed live minnows (mummichugs).
For examples 3-19, with the exception of the commercially available spray products and the meat tenderizer paste solution, all of the other test solutions were in liquid form and were applied using a one milliliter pipetter and sterile tips.
For examples 3-19 below, the following general procedures were followed. Healthy, actively swimming jellyfish were used in all examples, and the same procedure was applied in all cases. The same human test subjects were used in all experiments, in order to have continuity and be able to qualitatively compare treatment effects among experimental dates. […]

Data set [2] concerns chigger bites. Nature of the data set: Chigger bite treatment, one subject. Format: in vivo, human. Particulars: Example 22; 4% lidocaine formulation applied after removal of the other two products. An excerpt: The subject for this example had substantial experience with chigger bites, with typical symptoms including intense and prolonged (days to weeks) itching associated with the bites. Subject was provided with a solution of 4% lidocaine and water (carrier) according to the present disclosure. Subject received 6 chigger bites on inner thigh area. Subject applied the formulation to two of the chigger bites, treated two others with Chigger Rid®, a drug store product, and applied clear finger nail polish, a home remedy, to the final two bites. […] After three days, subject removed the other two products and applied the 4% lidocaine formulation of the present disclosure to the remaining four bites.

The nature of data set [3]: Solubility in water. The data set is classed as physicochemical. Particulars: Example 13 remark.

SMILES strings stand for the structures. Counter-ions that a name gives are not always drawn.

Take `CCN(CC)CC(=O)Nc1c(C)cccc1C` [lidocaine]: the pain/irritation subsiding entry in data set [1] (Example 6, 10% compared to 5% lidocaine in 80:20 water:propylene glycol) is on record as “subsided faster”. For the same compound, the “redness and irritation of treated sites the next day” value in data set [1] (Example 7, 20 h later, lidocaine-treated sites vs absence of lidocaine) is recorded as “not red or irritated the next day”. Also, the “itching of remaining 4 bites treated after three days” value in data set [2] was “subsided after application of the formulation of the present disclosure and did not return”.

As for `CCN(CC)CC(=O)Nc1c(C)cccc1C` [lidocaine hydrochloride], the dissolves in water result in data set [3] is “does”.

(Values after patent publication US8318809B2, “Compositions and methods for treating jellyfish stings” (priority 2006, dated 2012).)
